Results: patent publication EP2878677A1, “Activators of protein phosphatase 5” (Deutsches Zentrum für Neurodegenerative Erkrankungen e.V. …, priority 2013, dated 2015)
Part of at least one peptide drawing is inferred or uncertain, most often the ends.

Columns and labels:
[1] = biological target: T1, PPH-5 (Caenorhabditis elegans, UniProt Q9NES8); experiment: pNPP-based phosphatase assay with nematode PPH-5; assay type: biochemical, C. elegans; set-up: made in house; host or cells: bacteria (strain not tied to PPH-5); conditions: C-terminal MEEVD peptide of Hsp90/DAF-21, 60 µM
T1 sequence (Q9NES8 1-496): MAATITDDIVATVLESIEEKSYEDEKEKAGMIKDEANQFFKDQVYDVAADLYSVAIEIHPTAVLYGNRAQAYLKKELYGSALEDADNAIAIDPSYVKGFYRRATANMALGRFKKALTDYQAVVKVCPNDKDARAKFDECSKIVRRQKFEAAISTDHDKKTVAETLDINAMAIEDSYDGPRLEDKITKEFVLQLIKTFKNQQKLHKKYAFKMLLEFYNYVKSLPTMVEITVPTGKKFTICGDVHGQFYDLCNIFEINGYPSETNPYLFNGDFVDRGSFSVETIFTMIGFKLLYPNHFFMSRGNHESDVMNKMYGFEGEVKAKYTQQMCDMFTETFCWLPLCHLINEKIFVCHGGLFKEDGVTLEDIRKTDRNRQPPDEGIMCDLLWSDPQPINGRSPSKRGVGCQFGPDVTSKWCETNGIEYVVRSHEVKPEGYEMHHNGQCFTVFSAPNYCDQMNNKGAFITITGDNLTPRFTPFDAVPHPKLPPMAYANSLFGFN

[2] = biological target: T2, Hsp90/DAF-21 PPH-5 interface (Caenorhabditis elegans, UniProt Q9NES8); experiment: analytical ultracentrifugation (sedimentation velocity) with fluorescence detection; assay type: binding, C. elegans; conditions: 60 µM MEEVD peptide; complex without peptide 8.9 S
T2 construct: made in house
T2 sequence (Q9NES8 1-496): T1 sequence (Q9NES8 1-496)

CSCC[C@H](NC(=O)[C@H](CCCNC(=N)N)NC(=O)[C@H](CO)NC(=O)[C@H](C)NC(=O)[C@H](CC(=O)O)NC(=O)[C@H](CCC(=O)O)NC(=O)[C@H](CCC(=O)O)NC(=O)[C@H](C)N)C(=O)N[C@@H](CCC(=O)O)C(=O)N[C@@H](CCC(=O)O)C(=O)N[C@H](C(=O)N[C@@H](CC(=O)O)C(=O)O)C(C)C [MEEVD peptide, AEEDASRMEEVD]
stimulation of the phosphatase activity of PPH-5 [1]: around 3 fold
s20,w value of the YFP-Hsp90 PPH-5 complex [2]: 7.6 S
